Data on two sequences can be found in doi:10.1101/2020.04.25.060004.

Construct, isoform or probe ends are uncertain for at least one entry. For part of these data: The comparison behind a weaker result is the experiment's own reference, which may not be listed here.

For orientation: Kd means the constant that tells how readily two partners part at equilibrium. Higher therefore signals lower affinity.

For one data set, the system named is VEGF. Briefly: N2A2 flow-cell fluorescence.
In data set [1] the test system is insulin (human). Put plainly: cited.
For data set [2], the system named is insulin (human). Briefly: bead-based flow cytometry. To be noted: 1% human serum, no meaningful Kd. (A flow cytometer gives signals particle by particle.)

For the sequence “AGCAGCACAGAGGTCAGATGAATTGGGCCCGTCCGTATGGTGGGTCCTATGCGTGCTACCGTGAA [SL-2B (displayed on flow-cell)]”, the binding result with VEGF is recorded as “binds”.

On to “GGTGGTGGGGGGGGTTGGTAGGGTGTCTTC [IGA3 bt]”, for which, in the data set with insulin (human) [1], the Kd was 10 µM. In the data set with insulin (human) [2], the binding result is on record as “binds more weakly”.
